Measurements as given in publication PMC3439491.
For some of these results: A negative result means that nothing was seen under these conditions. For some of these results: At least one verdict rests on a figure or table, not on a statement of the authors. For some of these results: A weaker result is weaker than the reference pair of the same experiment. For some of these results: Construct, isoform or probe ends are uncertain for at least one entry. For some of these results: Results from cells or extracts need not show a direct contact.

Key:
[1] = target: MA-MADS5 full length (A) (UniProt E9NW24); experiment: competition with a labelled probe; settings: EMSA with 2 ug recombinant protein or 15 ug nuclear extract, buffer by reference to earlier work, circularization pre-incubation: 60 mM KCl, 8 mM HEPES pH 7.9, recombinant protein, residues 1-243, protein details: 6xHis (pQE30)
[2] = target: MA-MADS5 in banana nuclear extract (UniProt E9NW24); experiment: EMSA; settings: also fails to compete at 100-fold excess (pulp); EMSA with 2 ug recombinant protein or 15 ug nuclear extract, buffer by reference to earlier work; circularization pre-incubation: 60 mM KCl, 8 mM HEPES pH 7.9; protein in an extract; label: 32P or unlabeled
[3] = target: MA-MADS5 in banana nuclear extract (UniProt E9NW24); experiment: EMSA + MS identification; South-Western; settings: flower and climacteric pulp extract; EMSA with 2 ug recombinant protein or 15 ug nuclear extract, buffer by reference to earlier work; circularization pre-incubation: 60 mM KCl, 8 mM HEPES pH 7.9; protein in an extract; label: 32P
[4] = target: MA-MADS5 B (MADS) (UniProt E9NW24); experiment: EMSA; settings: EMSA with 2 ug recombinant protein or 15 ug nuclear extract, buffer by reference to earlier work; circularization pre-incubation: 60 mM KCl, 8 mM HEPES pH 7.9; recombinant protein; residues 1-60; protein details: 6xHis (pQE30); label: 32P
[5] = target: MA-MADS5 in banana nuclear extract (UniProt E9NW24); experiment: competition with a labelled probe; settings: 100-fold excess vs N1; EMSA with 2 ug recombinant protein or 15 ug nuclear extract, buffer by reference to earlier work; circularization pre-incubation: 60 mM KCl, 8 mM HEPES pH 7.9; protein in an extract
[6] = target: MA-MADS5 in banana nuclear extract (UniProt E9NW24); experiment: EMSA supershift and immunoblot; settings: fruit pulp extract (text climacteric, legend postclimacteric); EMSA with 2 ug recombinant protein or 15 ug nuclear extract, buffer by reference to earlier work; circularization pre-incubation: 60 mM KCl, 8 mM HEPES pH 7.9; protein in an extract; label: 32P 5' end

## AAGCACGCATATCGGTGCTGCA (double strand) [m7 (MA-EXP)]
[1]; 100-fold excess vs N10
  binding result: no binding

## ACACCCCAGCAATTTGATCTTC (double strand) [m2 (MA-ACS1)]
[1]; 100-fold excess vs N5
  binding result: no binding

## ACTGAAGCTTTCCATGCATGGGAATGACGCACAATCCCAC (double strand) [AGAMOUS element m1 (Am probe, CArGm)]
[2]
  binding result: no binding

## ACTGAAGCTTTCCATTAATGGGAATGACGCACAATCCCAC (double strand) [AGAMOUS element 1 CArG-box (A probe)]
[3]
  binding result: binds
[4]
  binding result: binds more weakly

## CGCGGATAAGCGTACGCGGATAAGCGTA (double strand) [GATA box]
[5]
  binding result: no binding

## CTGGTATCTGTTCATGAAATCT (double strand) [m8 (MA-LEC)]
[1]; 100-fold excess vs N11
  binding result: no binding

## GAGGTTGGTGATTTGTCACTAC (double strand) [m5 (MA-ACO1)]
[1]; 100-fold excess vs N8
  binding result: no binding

## TTGGATTCTTATATGTCACGAA (double strand) [CArG motif 1 (MA-SPS)]
[6]
  binding result: binds

## TTGGATTCTTGCATGTCACGAA (double strand) [m1 (MA-SPS)]
[1]; 100-fold excess vs N4
  binding result: no binding
